According to patent US20110129868A1, “CELL CAPABLE OF REPLICATING NOVEL HCV REPLICON, CELL CAPABLE OF REPLICATING FULL-LENGTH HCV RNA, AND USE OF THOSE CELLS” (priority 2008, published 2011):
At least one structure is not confirmed: it was looked up by name or label, or the drawing left a doubt.

Experiments:
[1] = system: HCV replicon of Con1 strain; settings: analyzed 72 hours after the addition of the drug; cited from earlier work
HCV replicon of N strain = settings: analyzed 72 hours after the addition of the drug; cited from earlier work
[2] = system: full-length HCV RNA replication in ORL11 cells; format: cell-based, HCV-O strain (genotype 1b); settings: 0.25 to 10 μM, luciferase activity after 72 hours
Experimental: (§1) Renilla luciferase was quantified by collecting cells using a Renilla Luciferase Assay System (Promega) according to the manufacturer's experiment protocol.
(§2) Luciferase activity of each cell line was then measured at hour 24, 48, and 72. […] SD values were calculated based on the results from three samples at each point. […]

[3] = system: full-length HCV RNA replication in ORL8 cells; format: cell-based, HCV-O strain (genotype 1b); settings: 0.25 to 10 μM, luciferase activity after 72 hours
Experimental: as §1, §2

[4] = system: full-length HCV RNA replication in OR6 cells; format: cell-based, HCV-O strain (genotype 1b); settings: 0.25 to 10 μM, luciferase activity after 72 hours
Text: as §1
An OR6-cell assay system was used as a control.

Row | SMILES | EC50 [1] [nM] | EC50 (HCV replicon of N strain) [nM] | anti-HCV effect [2] | anti-HCV effect [3] | anti-HCV effect [4]
1 | COC1=C2C[C@@H](C)C[C@H](OC)[C@H](O)[C@@H](C)/C=C(\C)[C@H](OC(N)=O)[C@@H](OC)/C=C\C=C(/C)C(=O)NC(=CC1=O)C2=O [Geldanamycin] | 5.5 | 7.8 | – | – | –
2 | CC[C@H](C)C(=O)O[C@H]1C[C@H](O)C=C2C=C[C@H](C)[C@H](CC[C@@H](O)C[C@@H](O)CC(=O)O)[C@H]21 [Pravastatin] | – | – | not confirmable | not confirmable | not confirmable
